According to paper PMC6815129:
No constants are given. Whether binding was seen depends on the method and setting. In cells and extracts the contact can be indirect. Some binding calls cover weakened binding; strength is not graded here. Where a sequence is shown, tags or fusion partners need not be part of it.

T1: HA-RGA, full-length, in vitro translated (Arabidopsis thaliana) (UniProt Q9SLH3)
T1 sequence: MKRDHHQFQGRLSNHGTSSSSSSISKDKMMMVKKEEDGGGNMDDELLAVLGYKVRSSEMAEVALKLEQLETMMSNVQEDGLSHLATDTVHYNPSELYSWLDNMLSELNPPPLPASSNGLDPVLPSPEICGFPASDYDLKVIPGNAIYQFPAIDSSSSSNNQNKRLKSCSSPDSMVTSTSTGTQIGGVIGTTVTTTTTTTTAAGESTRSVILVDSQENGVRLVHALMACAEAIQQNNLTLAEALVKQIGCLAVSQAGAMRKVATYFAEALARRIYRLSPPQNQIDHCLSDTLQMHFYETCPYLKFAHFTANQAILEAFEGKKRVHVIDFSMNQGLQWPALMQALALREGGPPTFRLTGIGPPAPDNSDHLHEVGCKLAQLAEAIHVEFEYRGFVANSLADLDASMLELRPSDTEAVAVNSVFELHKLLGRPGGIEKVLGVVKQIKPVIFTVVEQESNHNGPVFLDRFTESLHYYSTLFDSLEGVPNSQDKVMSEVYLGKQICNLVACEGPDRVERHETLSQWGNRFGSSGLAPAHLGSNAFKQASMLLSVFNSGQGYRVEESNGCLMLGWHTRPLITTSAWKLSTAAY

T2: GFP–RGA expressed from an endogenous promoter fragment in transgenic Arabidopsis seedlings (Arabidopsis thaliana) (UniProt Q9SLH3)
T2 sequence: T1 sequence

B1: cMyc-GI, in vitro translated (protein, UniProt Q9SQI2 1-1173)
chain: MASSSSSERWIDGLQFSSLLWPPPRDPQQHKDQVVAYVEYFGQFTSEQFPDDIAELVRHQYPSTEKRLLDDVLAMFVLHHPEHGHAVILPIISCLIDGSLVYSKEAHPFASFISLVCPSSENDYSEQWALACGEILRILTHYNRPIYKTEQQNGDTERNCLSKATTSGSPTSEPKAGSPTQHERKPLRPLSPWISDILLAAPLGIRSDYFRWCSGVMGKYAAGELKPPTIASRGSGKHPQLMPSTPRWAVANGAGVILSVCDDEVARYETATLTAVAVPALLLPPPTTSLDEHLVAGLPALEPYARLFHRYYAIATPSATQRLLLGLLEAPPSWAPDALDAAVQLVELLRAAEDYASGVRLPRNWMHLHFLRAIGIAMSMRAGVAADAAAALLFRILSQPALLFPPLSQVEGVEIQHAPIGGYSSNYRKQIEVPAAEATIEATAQGIASMLCAHGPEVEWRICTIWEAAYGLIPLNSSAVDLPEIIVATPLQPPILSWNLYIPLLKVLEYLPRGSPSEACLMKIFVATVETILSRTFPPESSRELTRKARSSFTTRSATKNLAMSELRAMVHALFLESCAGVELASRLLFVVLTVCVSHEAQSSGSKRPRSEYASTTENIEANQPVSNNQTANRKSRNVKGQGPVAAFDSYVLAAVCALACEVQLYPMISGGGNFSNSAVAGTITKPVKINGSSKEYGAGIDSAISHTRRILAILEALFSLKPSSVGTPWSYSSSEIVAAAMVAAHISELFRRSKALTHALSGLMRCKWDKEIHKRASSLYNLIDVHSKVVASIVDKAEPLEAYLKNTPVQKDSVTCLNWKQENTCASTTCFDTAVTSASRTEMNPRGNHKYARHSDEGSGRPSEKGIKDFLLDASDLANFLTADRLAGFYCGTQKLLRSVLAEKPELSFSVVSLLWHKLIAAPEIQPTAESTSAQQGWRQVVDALCNVVSATPAKAAAAVVLQAERELQPWIAKDDEEGQKMWKINQRIVKVLVELMRNHDRPESLVILASASDLLLRATDGMLVDGEACTLPQLELLEATARAIQPVLAWGPSGLAVVDGLSNLLKCRLPATIRCLSHPSAHVRALSTSVLRDIMNQSSIPIKVTPKLPTTEKNGMNSPSYRFFNAASIDWKADIQNCLNWEAHSLLSTTMPTQFLDTAARELGCTISLSQ
B2: HA-GI expressed from the 35S promoter in transgenic Arabidopsis seedlings (protein, UniProt Q9SQI2 1-1173)
chain: B1 chain

Columns and labels:
[1] = target: T1, HA-RGA, full-length, in vitro translated (Arabidopsis thaliana); assay: pull-down; in vitro pull-down; Flag-GID1A, HA-RGA and cMyc-GI expressed separately in the TnT system; 7 µL each of GID1A and RGA extract with 0, 1.75, 3.5, 7, 15 or 28 µL of GI extract; immunoprecipitated with anti-Flag; 100 µM GA3 in the IP buffer
[2] = target: T2, GFP–RGA expressed from an endogenous promoter fragment in transgenic Arabidopsis seedlings (Arabidopsis thaliana); assay: co-IP; 10-d-old SD-grown transgenic Arabidopsis seedlings expressing HA-GI and GFP–RGA, harvested at ZT8; modified SII buffer with 50 µM MG-132; immunoprecipitated with anti-GFP Ab290 and protein G Dynabeads, 4 °C

| Binder | binding [1] | binding [2] |
| --- | --- | --- |
| B1 | binds | – |
| B2 | – | binds |
